Laboratory results taken from PMC7544205.
No constants are given. Whether binding was seen depends on the method and setting. In cells and extracts the contact can be indirect. A yes stands for co-enrichment or nearness to the bait. Other partners may have been found. For some of these results: A no says only that the protein was not detected with the bait. For some of these results: Where a sequence is shown, tags or fusion partners need not be part of it.

By UniProt entry, the sequences of proteins in these tests, tags left out.
UniProt Q9H814: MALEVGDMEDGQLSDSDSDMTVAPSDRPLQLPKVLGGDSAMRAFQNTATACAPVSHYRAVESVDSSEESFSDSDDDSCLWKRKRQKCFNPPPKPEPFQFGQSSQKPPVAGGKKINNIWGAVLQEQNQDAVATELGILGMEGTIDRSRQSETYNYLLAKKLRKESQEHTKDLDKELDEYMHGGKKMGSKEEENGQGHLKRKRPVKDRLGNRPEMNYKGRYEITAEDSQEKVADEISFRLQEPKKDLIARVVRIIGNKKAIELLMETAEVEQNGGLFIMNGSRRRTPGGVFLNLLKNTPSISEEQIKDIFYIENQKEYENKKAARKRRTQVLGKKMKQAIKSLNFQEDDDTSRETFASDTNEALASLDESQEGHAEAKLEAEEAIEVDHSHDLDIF
UniProt Q6NZY4: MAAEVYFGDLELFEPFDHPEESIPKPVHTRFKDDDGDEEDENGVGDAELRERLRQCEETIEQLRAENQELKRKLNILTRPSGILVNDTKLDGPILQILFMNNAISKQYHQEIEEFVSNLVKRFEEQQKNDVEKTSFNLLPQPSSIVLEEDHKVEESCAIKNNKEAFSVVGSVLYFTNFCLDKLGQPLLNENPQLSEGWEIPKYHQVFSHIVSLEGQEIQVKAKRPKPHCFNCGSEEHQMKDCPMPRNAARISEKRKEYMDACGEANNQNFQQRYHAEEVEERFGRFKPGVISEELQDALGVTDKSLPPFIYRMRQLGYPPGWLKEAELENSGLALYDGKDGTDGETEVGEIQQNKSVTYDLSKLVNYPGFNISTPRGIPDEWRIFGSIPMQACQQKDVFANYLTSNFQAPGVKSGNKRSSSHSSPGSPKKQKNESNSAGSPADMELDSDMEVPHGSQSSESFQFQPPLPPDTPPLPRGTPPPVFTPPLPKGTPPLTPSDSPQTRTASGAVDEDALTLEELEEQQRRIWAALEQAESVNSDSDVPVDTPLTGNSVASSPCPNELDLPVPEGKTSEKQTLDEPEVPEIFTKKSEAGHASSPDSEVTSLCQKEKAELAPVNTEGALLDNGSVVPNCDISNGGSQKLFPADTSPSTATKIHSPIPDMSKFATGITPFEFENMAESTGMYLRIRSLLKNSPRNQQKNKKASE

Tests used:
Test in all cases: affinity purification with mass spectrometry; interaction screen: LAP-tagged NCBP1, NCBP2 or NCBP3 captured with anti-GFP beads from cryogrinded HeLa cell powder in six (NCBP1, NCBP2) or four (NCBP3) extraction conditions, against CTRL-LAP; label-free quantification
[1] = target: T1, LAP-tagged NCBP3 (C17orf85) (UniProt Q53F19)
T1 sequence: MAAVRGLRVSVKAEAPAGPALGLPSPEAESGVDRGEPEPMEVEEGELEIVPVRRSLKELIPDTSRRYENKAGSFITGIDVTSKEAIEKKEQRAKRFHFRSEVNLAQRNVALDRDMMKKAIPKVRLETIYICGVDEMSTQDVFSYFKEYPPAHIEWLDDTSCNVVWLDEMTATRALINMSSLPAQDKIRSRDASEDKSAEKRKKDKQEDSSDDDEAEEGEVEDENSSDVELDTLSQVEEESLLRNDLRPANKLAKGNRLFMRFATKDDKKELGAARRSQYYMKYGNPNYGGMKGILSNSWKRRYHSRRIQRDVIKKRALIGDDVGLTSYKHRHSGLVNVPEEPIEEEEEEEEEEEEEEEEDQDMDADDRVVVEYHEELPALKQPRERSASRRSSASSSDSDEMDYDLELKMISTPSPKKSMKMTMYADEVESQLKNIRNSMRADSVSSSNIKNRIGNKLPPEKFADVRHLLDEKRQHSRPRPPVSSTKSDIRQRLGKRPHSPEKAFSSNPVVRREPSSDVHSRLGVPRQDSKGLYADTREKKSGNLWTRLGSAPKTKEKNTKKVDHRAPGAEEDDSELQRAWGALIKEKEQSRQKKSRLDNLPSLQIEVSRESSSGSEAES

[2] = target: T2, LAP-tagged NCBP2 (Nuclear Cap-Binding Protein 2) (UniProt P52298)
T2 sequence: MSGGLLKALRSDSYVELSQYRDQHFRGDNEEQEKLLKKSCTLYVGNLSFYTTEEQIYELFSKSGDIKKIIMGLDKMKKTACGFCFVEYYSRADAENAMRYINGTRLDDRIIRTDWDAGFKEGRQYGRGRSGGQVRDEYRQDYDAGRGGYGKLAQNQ

[3] = target: LAP-tagged NCBP1 (Nuclear Cap-Binding Protein 1) (UniProt Q09161)
[4] = target: T3, LAP-tagged NCBP1 (Nuclear Cap-Binding Protein 1), Q09161; conditions: remark: other sources report otherwise
T3 chain: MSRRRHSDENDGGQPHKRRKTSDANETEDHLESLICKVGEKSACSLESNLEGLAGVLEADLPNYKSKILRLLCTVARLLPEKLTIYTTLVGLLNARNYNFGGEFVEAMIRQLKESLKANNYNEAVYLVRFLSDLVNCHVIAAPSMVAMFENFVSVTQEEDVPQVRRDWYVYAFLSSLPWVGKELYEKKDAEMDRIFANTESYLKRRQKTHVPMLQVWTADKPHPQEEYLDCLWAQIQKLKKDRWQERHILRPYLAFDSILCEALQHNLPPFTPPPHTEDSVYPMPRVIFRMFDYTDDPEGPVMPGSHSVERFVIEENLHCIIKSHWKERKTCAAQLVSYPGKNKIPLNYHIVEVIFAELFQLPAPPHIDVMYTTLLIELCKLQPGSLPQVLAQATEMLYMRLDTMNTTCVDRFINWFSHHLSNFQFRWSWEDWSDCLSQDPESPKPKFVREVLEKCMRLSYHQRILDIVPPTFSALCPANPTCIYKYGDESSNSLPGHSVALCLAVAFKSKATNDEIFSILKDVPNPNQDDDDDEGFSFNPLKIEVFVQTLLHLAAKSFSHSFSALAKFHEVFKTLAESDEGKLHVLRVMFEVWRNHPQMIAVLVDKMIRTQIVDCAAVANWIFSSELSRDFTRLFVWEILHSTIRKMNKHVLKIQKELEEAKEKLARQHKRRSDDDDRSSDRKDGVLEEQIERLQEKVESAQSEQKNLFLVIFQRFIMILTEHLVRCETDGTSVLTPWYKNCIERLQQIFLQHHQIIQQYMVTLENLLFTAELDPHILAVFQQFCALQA

[5] = target: T4, LAP-tagged NCBP2 (Nuclear Cap-Binding Protein 2), P52298; conditions: remark: other sources report otherwise
T4 chain: T2 sequence

PHAX (from UniProt Q9H814 1-394)
binding [1]: no binding
binding [2]: binds
binding [3]: binds

ZCCHC8 (from UniProt Q6NZY4 1-707)
binding [1]: no binding
binding [2]: binds
binding [3]: binds

Nuclear Cap-Binding Protein 1 (NCBP1) (from UniProt Q09161 1-790)
binding [2]: binds

B1: ARS2/SRRT (protein, UniProt Q9BXP5 1-876)
chain: MGDSDDEYDRRRRDKFRRERSDYDRSRERDERRRGDDWNDREWDRGRERRSRGEYRDYDRNRRERFSPPRHELSPPQKRMRRDWDEHSSDPYHSGYEMPYAGGGGGPTYGPPQPWGHPDVHIMQHHVLPIQARLGSIAEIDLGVPPPVMKTFKEFLLSLDDSVDETEAVKRYNDYKLDFRRQQMQDFFLAHKDEEWFRSKYHPDEVGKRRQEARGALQNRLRVFLSLMETGWFDNLLLDIDKADAIVKMLDAAVIKMEGGTENDLRILEQEEEEEQAGKPGEPSKKEEGRAGAGLGDGERKTNDKDEKKEDGKQAENDSSNDDKTKKSEGDGDKEEKKEDSEKEAKKSSKKRNRKHSGDDSFDEGSVSESESESESGQAEEEKEEAEEALKEKEKPKEEEWEKPKDAAGLECKPRPLHKTCSLFMRNIAPNISRAEIISLCKRYPGFMRVALSEPQPERRFFRRGWVTFDRSVNIKEICWNLQNIRLRECELSPGVNRDLTRRVRNINGITQHKQIVRNDIKLAAKLIHTLDDRTQLWASEPGTPPLPTSLPSQNPILKNITDYLIEEVSAEEEELLGSSGGAPPEEPPKEGNPAEINVERDEKLIKVLDKLLLYLRIVHSLDYYNTCEYPNEDEMPNRCGIIHVRGPMPPNRISHGEVLEWQKTFEEKLTPLLSVRESLSEEEAQKMGRKDPEQEVEKFVTSNTQELGKDKWLCPLSGKKFKGPEFVRKHIFNKHAEKIEEVKKEVAFFNNFLTDAKRPALPEIKPAQPPGPAQILPPGLTPGLPYPHQTPQGLMPYGQPRPPILGYGAGAVRPAVPTGGPPYPHAPYGAGRGNYDAFRGQGGYPGKPRNRMVRGDPRAIVEYRDLDAPDDVDFF
binding [2]: binds
binding [3]: binds

B2: ZC3H18, Q86VM9 1-953 (protein)
chain: MDVAESPERDPHSPEDEEQPQGLSDDDILRDSGSDQDLDGAGVRASDLEDEESAARGPSQEEEDNHSDEEDRASEPKSQDQDSEVNELSRGPTSSPCEEEGDEGEEDRTSDLRDEASSVTRELDEHELDYDEEVPEEPAPAVQEDEAEKAGAEDDEEKGEGTPREEGKAGVQSVGEKESLEAAKEKKKEDDDGEIDDGEIDDDDLEEGEVKDPSDRKVRPRPTCRFFMKGNCTWGMNCRFIHPGVNDKGNYSLITKADPFPPNGAPPLGPHPLMPANPWGGPVVDEILPPPPPEPPTESAWERGLRHAKEVLKKATIRKEQEPDFEEKRFTVTIGEDEREFDKENEVFRDWNSRIPRDVRDTVLEPYADPYYDYEIERFWRGGQYENFRVQYTETEPYHNYRERERERERENRQRERERERERDRERERRQRERERERERERDKERQRRKEEWERERAKRDEKDRQHRDRDREKEREKEKGKPKPRSPQPPSRQAEPPKKEAATTGPQVKRADEWKDPWRRSKSPKKKLGVSVSPSRARRRRKTSASSASASNSSRSSSRSSSYSGSGSSRSRSRSSSYSSYSSRSSRHSSFSGSRSRSRSFSSSPSPSPTPSPHRPSIRTKGEPAPPPGKAGEKSVKKPAPPPAPPQATKTTAPVPEPTKPGDPREARRKERPARTPPRRRTLSGSGSGSGSSYSGSSSRSRSLSVSSVSSVSSATSSSSSAHSVDSEDMYADLASPVSSASSRSPAPAQTRKEKGKSKKEDGVKEEKRKRDSSTQPPKSAKPPAGGKSSQQPSTPQQAPPGQPQQGTFVAHKEIKLTLLNKAADKGSRKRYEPSDKDRQSPPPAKRPNTSPDRGSRDRKSGGRLGSPKPERQRGQNSKAPAAPADRKRQLSPQSKSSSKVTSVPGKASDPGAASTKSGKASTLSRREELLKQLKAVEDAIARKRAKIPGKA
binding [4]: binds
binding [5]: binds

B3: RNPS1 (protein, UniProt Q15287 1-305)
chain: MDLSGVKKKSLLGVKENNKKSSTRAPSPTKRKDRSDEKSKDRSKDKGATKESSEKDRGRDKTRKRRSASSGSSSTRSRSSSTSSSGSSTSTGSSSGSSSSSASSRSGSSSTSRSSSSSSSSGSPSPSRRRHDNRRRSRSKSKPPKRDEKERKRRSPSPKPTKVHIGRLTRNVTKDHIMEIFSTYGKIKMIDMPVERMHPHLSKGYAYVEFENPDEAEKALKHMDGGQIDGQEITATAVLAPWPRPPPRRFSPPRRMLPPPPMWRRSPPRMRRRSRSPRRRSPVRRRSRSPGRRRHRSRSSSNSSR
binding [1]: binds

B4: ZC3H18 (protein, UniProt Q86VM9 1-953)
chain: B2 chain
binding [1]: no binding
